Reference: PubChem BioAssay AID188 (DTP/NCI, 2004)
Shown are survivors of the treated group in tumour-free mice. Survivors were counted at the toxicity check, usually on the fifth day, unless a day is given; later deaths do not show. Schedules are NCI's codes, taken here to give the interval after Q, in days (D) or hours (H), and the number of doses after X. Some entries hold several experiments; their values stand side by side, smallest first.

Tested on: CD2F1 mice, nontumored, toxicity/survival
Experiment: NCI In Vivo Anticancer Drug Screen. Data for tumor model Nontumored Animals (Toxicity Test) in CD2F1 (CDF1) mice

COc1cc([C@@H]2c3cc4c(cc3[C@@H](OC3OC5COC(C)OC5C(O)C3O)[C@H]3COC(=O)[C@H]23)OCO4)cc(OC)c1O (stereo partly specified)
survivor count (dose: 32.0 mg/kg/injection, schedule: Q01DX009 (oral), vehicle: Klucel (hydroxypropylcellulose) (HPC)): 8 of 8
survivor count (dose: 32.0 mg/kg/injection, schedule: Q01DX009 (sc), vehicle: other): 7 of 8
survivor count (dose: 32.0 mg/kg/injection, schedule: Q03HX003 (oral), vehicle: Klucel (hydroxypropylcellulose) (HPC)): 8 of 8
survivor count (dose: 32.0 mg/kg/injection, schedule: Q03HX008 (ip), vehicle: other): 1 of 8
survivor count (dose: 32.0 mg/kg/injection, schedule: Q03HX008 (oral), vehicle: Klucel (hydroxypropylcellulose) (HPC)): 7 of 8
survivor count (dose: 32.0 mg/kg/injection, schedule: Q03HX016 (oral), vehicle: Klucel (hydroxypropylcellulose) (HPC)): 8 of 8
survivor count (dose: 32.0 mg/kg/injection, schedule: Q03HX024 (oral), vehicle: Klucel (hydroxypropylcellulose) (HPC)): 8 of 8
survivor count (dose: 32.0 mg/kg/injection, schedule: Q04DX003 (ip), vehicle: other): 8 of 8
survivor count (dose: 32.0 mg/kg/injection, schedule: Q04DX003 (ip), vehicle: saline): 0 of 2 and 4 of 4
survivor count (dose: 32.0 mg/kg/injection, schedule: Q08DX002 (ip), vehicle: other): 8 of 8
survivor count (dose: 32.0 mg/kg/injection, schedule: Q08DX002 (oral), vehicle: Klucel (hydroxypropylcellulose) (HPC)): 8 of 8
survivor count (dose: 40.0 mg/kg/injection, schedule: Q04DX002 (ip), vehicle: suspension in saline): 4 of 4
survivor count (dose: 40.0 mg/kg/injection, schedule: Q04DX003 (ip), vehicle: saline with Tween-80): 4 of 4
survivor count (dose: 64.0 mg/kg/injection, schedule: Q01DX001 (ip), vehicle: other): 8 of 8
survivor count (dose: 64.0 mg/kg/injection, schedule: Q01DX001 (oral), vehicle: Klucel (hydroxypropylcellulose) (HPC)): 8 of 8
survivor count (dose: 64.0 mg/kg/injection, schedule: Q01DX001 (sc), vehicle: other): 8 of 8
survivor count (dose: 64.0 mg/kg/injection, schedule: Q01DX009 (oral), vehicle: Klucel (hydroxypropylcellulose) (HPC)): 8 of 8
survivor count (dose: 64.0 mg/kg/injection, schedule: Q01DX009 (oral), vehicle: other): 8 of 8
survivor count (dose: 64.0 mg/kg/injection, schedule: Q03HX003 (oral), vehicle: Klucel (hydroxypropylcellulose) (HPC)): 8 of 8
survivor count (dose: 64.0 mg/kg/injection, schedule: Q03HX008 (oral), vehicle: Klucel (hydroxypropylcellulose) (HPC)): 8 of 8
survivor count (dose: 64.0 mg/kg/injection, schedule: Q03HX016 (oral), vehicle: Klucel (hydroxypropylcellulose) (HPC)): 7 of 8
survivor count (dose: 64.0 mg/kg/injection, schedule: Q03HX024 (oral), vehicle: Klucel (hydroxypropylcellulose) (HPC)): 6 of 8
survivor count (dose: 64.0 mg/kg/injection, schedule: Q04DX003 (ip), vehicle: other): 8 of 8
survivor count (dose: 64.0 mg/kg/injection, schedule: Q04DX003 (ip), vehicle: saline): 4 of 4
survivor count (dose: 64.0 mg/kg/injection, schedule: Q08DX002 (ip), vehicle: other): 8 of 8
survivor count (dose: 64.0 mg/kg/injection, schedule: Q08DX002 (oral), vehicle: Klucel (hydroxypropylcellulose) (HPC)): 8 of 8
survivor count (dose: 128.0 mg/kg/injection, schedule: Q01DX001 (ip), vehicle: other): 7 of 8
survivor count (dose: 128.0 mg/kg/injection, schedule: Q01DX001 (oral), vehicle: Klucel (hydroxypropylcellulose) (HPC)): 8 of 8
survivor count (dose: 128.0 mg/kg/injection, schedule: Q01DX001 (oral), vehicle: other): 8 of 8
survivor count (dose: 128.0 mg/kg/injection, schedule: Q01DX001 (sc), vehicle: other): 8 of 8
survivor count (dose: 128.0 mg/kg/injection, schedule: Q01DX009 (oral), vehicle: Klucel (hydroxypropylcellulose) (HPC)): 8 of 8
survivor count (dose: 128.0 mg/kg/injection, schedule: Q01DX009 (oral), vehicle: other): 8 of 8
survivor count (dose: 128.0 mg/kg/injection, schedule: Q03HX003 (oral), vehicle: Klucel (hydroxypropylcellulose) (HPC)): 8 of 8
survivor count (dose: 128.0 mg/kg/injection, schedule: Q03HX008 (oral), vehicle: Klucel (hydroxypropylcellulose) (HPC)): 8 of 8
survivor count (dose: 128.0 mg/kg/injection, schedule: Q03HX016 (oral), vehicle: Klucel (hydroxypropylcellulose) (HPC)): 7 of 8
survivor count (dose: 128.0 mg/kg/injection, schedule: Q03HX024 (oral), vehicle: Klucel (hydroxypropylcellulose) (HPC)): 8 of 8
survivor count (dose: 128.0 mg/kg/injection, schedule: Q04DX003 (ip), vehicle: other): 6 of 8
survivor count (dose: 128.0 mg/kg/injection, schedule: Q08DX002 (ip), vehicle: other): 8 of 8
survivor count (dose: 128.0 mg/kg/injection, schedule: Q08DX002 (oral), vehicle: Klucel (hydroxypropylcellulose) (HPC)): 8 of 8
survivor count (dose: 256.0 mg/kg/injection, schedule: Q01DX001 (ip), vehicle: other): 2 of 8
survivor count (dose: 256.0 mg/kg/injection, schedule: Q01DX001 (oral), vehicle: Klucel (hydroxypropylcellulose) (HPC)): 8 of 8
survivor count (dose: 256.0 mg/kg/injection, schedule: Q01DX001 (oral), vehicle: other): 8 of 8
survivor count (dose: 256.0 mg/kg/injection, schedule: Q01DX001 (sc), vehicle: other): 6 of 8
survivor count (dose: 256.0 mg/kg/injection, schedule: Q01DX009 (oral), vehicle: other): 8 of 8
survivor count (dose: 256.0 mg/kg/injection, schedule: Q03HX003 (oral), vehicle: Klucel (hydroxypropylcellulose) (HPC)): 8 of 8
survivor count (dose: 256.0 mg/kg/injection, schedule: Q08DX002 (oral), vehicle: Klucel (hydroxypropylcellulose) (HPC)): 8 of 8
survivor count (dose: 512.0 mg/kg/injection, schedule: Q01DX001 (oral), vehicle: Klucel (hydroxypropylcellulose) (HPC)): 8 of 8
survivor count (dose: 512.0 mg/kg/injection, schedule: Q01DX001 (oral), vehicle: other): 8 of 8
survivor count (dose: 512.0 mg/kg/injection, schedule: Q01DX009 (oral), vehicle: other): 8 of 8
survivor count (dose: 512.0 mg/kg/injection, schedule: Q03HX003 (oral), vehicle: Klucel (hydroxypropylcellulose) (HPC)): 8 of 8
survivor count (dose: 512.0 mg/kg/injection, schedule: Q08DX002 (oral), vehicle: Klucel (hydroxypropylcellulose) (HPC)): 8 of 8
survivor count (dose: 1024.0 mg/kg/injection, schedule: Q01DX001 (oral), vehicle: Klucel (hydroxypropylcellulose) (HPC)): 8 of 8
survivor count (dose: 1024.0 mg/kg/injection, schedule: Q01DX001 (oral), vehicle: other): 8 of 8
survivor count (dose: 1024.0 mg/kg/injection, schedule: Q01DX009 (oral), vehicle: other): 8 of 8
survivor count (dose: 1024.0 mg/kg/injection, schedule: Q03HX003 (oral), vehicle: Klucel (hydroxypropylcellulose) (HPC)): 8 of 8
survivor count (dose: 1024.0 mg/kg/injection, schedule: Q08DX002 (oral), vehicle: Klucel (hydroxypropylcellulose) (HPC)): 8 of 8
